Experimental data as given in the supplement of paper PMC10849652.
Some of the results follow.

Sequences of proteins named here, by UniProt entry; tags and fusion partners are left off. A change or cut given only in a name is not applied to a line headed by its entry.
UniProt O43772: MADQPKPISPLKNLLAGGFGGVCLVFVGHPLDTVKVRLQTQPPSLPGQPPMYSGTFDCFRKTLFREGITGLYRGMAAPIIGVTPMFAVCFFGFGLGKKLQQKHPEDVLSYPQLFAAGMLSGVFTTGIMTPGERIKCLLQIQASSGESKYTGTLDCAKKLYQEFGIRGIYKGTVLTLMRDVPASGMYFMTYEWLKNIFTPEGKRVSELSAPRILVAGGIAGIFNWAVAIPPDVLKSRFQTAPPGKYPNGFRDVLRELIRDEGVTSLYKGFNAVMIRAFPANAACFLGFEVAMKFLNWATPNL
UniProt Q8TB61: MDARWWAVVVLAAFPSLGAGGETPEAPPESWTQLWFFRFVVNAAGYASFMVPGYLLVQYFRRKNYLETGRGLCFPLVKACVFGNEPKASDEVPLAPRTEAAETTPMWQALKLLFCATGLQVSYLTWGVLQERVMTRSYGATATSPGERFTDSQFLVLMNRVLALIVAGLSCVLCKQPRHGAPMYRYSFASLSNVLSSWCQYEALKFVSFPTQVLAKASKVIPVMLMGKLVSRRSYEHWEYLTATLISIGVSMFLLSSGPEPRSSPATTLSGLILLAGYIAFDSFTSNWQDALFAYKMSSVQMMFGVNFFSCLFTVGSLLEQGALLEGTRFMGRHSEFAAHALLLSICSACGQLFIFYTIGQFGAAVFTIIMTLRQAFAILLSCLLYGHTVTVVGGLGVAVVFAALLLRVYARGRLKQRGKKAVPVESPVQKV
UniProt Q9NVC3: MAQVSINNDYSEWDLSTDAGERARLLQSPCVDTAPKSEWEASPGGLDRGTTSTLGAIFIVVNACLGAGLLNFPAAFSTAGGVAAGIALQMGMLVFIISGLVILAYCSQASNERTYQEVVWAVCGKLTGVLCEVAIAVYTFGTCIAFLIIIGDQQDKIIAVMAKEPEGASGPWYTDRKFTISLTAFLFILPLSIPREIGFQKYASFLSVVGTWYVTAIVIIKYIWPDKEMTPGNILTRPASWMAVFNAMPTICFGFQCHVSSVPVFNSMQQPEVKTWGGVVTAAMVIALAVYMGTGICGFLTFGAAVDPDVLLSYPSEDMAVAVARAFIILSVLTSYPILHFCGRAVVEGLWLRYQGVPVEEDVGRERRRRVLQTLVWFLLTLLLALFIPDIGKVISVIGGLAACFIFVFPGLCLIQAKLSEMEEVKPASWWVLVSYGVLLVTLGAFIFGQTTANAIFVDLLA
UniProt Q9Y289: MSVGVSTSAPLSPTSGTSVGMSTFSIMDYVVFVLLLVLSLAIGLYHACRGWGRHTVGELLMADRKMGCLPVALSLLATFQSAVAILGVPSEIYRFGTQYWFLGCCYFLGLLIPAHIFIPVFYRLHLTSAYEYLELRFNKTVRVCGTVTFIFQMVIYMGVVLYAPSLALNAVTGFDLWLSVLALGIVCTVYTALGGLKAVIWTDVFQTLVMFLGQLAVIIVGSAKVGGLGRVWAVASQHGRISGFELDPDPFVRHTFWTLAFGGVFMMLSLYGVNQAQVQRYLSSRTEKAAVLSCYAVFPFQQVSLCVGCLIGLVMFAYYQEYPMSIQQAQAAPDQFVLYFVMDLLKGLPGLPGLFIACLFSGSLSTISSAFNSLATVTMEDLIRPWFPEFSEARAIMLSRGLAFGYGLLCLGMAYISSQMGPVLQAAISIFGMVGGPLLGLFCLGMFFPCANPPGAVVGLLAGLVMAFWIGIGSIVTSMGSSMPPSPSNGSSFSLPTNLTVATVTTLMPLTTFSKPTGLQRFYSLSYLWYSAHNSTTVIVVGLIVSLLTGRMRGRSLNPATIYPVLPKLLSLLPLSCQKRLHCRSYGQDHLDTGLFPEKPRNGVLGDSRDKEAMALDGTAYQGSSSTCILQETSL
UniProt Q6XR72: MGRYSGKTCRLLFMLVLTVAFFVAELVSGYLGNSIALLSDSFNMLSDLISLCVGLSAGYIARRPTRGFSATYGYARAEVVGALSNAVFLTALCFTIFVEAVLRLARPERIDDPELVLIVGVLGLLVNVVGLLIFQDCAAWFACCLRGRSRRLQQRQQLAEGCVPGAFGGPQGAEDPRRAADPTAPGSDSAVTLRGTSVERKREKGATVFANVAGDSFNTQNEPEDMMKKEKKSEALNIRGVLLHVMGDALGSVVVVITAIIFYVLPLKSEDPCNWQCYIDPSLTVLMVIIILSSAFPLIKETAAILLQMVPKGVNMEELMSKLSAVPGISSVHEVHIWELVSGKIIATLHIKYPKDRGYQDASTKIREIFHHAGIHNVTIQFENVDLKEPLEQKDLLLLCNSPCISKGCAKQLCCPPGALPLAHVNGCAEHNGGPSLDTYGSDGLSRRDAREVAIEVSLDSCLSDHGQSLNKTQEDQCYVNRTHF
UniProt Q6KCM7: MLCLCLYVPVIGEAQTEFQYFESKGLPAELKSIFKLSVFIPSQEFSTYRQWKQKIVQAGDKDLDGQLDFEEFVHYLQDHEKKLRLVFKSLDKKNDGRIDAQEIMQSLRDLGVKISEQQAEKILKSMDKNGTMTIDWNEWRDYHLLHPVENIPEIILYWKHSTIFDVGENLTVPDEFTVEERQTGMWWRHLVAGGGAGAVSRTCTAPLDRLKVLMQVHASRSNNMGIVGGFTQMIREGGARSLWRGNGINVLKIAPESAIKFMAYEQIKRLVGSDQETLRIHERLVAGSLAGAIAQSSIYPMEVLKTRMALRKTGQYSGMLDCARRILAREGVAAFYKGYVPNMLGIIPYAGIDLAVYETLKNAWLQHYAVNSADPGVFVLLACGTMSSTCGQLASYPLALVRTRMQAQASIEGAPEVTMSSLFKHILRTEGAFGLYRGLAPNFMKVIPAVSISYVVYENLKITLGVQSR
UniProt Q96DW6: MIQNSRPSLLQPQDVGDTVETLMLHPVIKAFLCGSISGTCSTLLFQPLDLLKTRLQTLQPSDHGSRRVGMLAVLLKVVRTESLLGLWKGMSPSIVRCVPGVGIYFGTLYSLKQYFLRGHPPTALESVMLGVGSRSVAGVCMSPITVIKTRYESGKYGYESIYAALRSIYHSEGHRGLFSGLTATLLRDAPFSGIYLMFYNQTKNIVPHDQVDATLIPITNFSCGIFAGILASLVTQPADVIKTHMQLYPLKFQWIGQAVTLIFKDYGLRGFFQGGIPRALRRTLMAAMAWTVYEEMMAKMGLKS
UniProt O76082: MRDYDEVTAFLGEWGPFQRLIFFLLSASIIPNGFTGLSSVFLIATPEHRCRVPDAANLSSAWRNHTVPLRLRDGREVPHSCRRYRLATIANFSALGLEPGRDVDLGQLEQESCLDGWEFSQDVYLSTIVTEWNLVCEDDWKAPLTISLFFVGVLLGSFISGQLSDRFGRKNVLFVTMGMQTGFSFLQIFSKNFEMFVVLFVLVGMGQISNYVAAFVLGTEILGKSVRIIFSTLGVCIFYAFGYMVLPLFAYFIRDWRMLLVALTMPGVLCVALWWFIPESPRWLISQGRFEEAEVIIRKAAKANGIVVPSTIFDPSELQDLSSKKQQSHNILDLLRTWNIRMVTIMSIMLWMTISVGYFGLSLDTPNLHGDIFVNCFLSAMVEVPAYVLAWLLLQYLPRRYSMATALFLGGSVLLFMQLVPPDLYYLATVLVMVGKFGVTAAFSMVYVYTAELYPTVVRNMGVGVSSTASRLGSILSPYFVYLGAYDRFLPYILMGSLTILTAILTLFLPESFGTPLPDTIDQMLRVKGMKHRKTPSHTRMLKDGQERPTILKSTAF
UniProt O15431: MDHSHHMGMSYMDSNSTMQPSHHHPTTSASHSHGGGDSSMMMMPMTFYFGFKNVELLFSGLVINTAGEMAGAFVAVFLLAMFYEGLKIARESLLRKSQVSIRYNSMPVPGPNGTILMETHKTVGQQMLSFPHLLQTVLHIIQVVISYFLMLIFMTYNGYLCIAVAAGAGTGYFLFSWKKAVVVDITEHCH
UniProt Q02978: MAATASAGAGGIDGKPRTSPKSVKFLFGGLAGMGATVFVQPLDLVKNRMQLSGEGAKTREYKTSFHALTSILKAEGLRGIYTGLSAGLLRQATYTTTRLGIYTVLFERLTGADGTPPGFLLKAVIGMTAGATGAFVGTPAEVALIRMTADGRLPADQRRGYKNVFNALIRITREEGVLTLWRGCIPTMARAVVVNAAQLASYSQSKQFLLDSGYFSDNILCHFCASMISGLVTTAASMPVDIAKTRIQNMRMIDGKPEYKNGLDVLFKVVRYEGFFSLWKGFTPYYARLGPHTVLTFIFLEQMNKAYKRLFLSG
UniProt Q9Y6M7: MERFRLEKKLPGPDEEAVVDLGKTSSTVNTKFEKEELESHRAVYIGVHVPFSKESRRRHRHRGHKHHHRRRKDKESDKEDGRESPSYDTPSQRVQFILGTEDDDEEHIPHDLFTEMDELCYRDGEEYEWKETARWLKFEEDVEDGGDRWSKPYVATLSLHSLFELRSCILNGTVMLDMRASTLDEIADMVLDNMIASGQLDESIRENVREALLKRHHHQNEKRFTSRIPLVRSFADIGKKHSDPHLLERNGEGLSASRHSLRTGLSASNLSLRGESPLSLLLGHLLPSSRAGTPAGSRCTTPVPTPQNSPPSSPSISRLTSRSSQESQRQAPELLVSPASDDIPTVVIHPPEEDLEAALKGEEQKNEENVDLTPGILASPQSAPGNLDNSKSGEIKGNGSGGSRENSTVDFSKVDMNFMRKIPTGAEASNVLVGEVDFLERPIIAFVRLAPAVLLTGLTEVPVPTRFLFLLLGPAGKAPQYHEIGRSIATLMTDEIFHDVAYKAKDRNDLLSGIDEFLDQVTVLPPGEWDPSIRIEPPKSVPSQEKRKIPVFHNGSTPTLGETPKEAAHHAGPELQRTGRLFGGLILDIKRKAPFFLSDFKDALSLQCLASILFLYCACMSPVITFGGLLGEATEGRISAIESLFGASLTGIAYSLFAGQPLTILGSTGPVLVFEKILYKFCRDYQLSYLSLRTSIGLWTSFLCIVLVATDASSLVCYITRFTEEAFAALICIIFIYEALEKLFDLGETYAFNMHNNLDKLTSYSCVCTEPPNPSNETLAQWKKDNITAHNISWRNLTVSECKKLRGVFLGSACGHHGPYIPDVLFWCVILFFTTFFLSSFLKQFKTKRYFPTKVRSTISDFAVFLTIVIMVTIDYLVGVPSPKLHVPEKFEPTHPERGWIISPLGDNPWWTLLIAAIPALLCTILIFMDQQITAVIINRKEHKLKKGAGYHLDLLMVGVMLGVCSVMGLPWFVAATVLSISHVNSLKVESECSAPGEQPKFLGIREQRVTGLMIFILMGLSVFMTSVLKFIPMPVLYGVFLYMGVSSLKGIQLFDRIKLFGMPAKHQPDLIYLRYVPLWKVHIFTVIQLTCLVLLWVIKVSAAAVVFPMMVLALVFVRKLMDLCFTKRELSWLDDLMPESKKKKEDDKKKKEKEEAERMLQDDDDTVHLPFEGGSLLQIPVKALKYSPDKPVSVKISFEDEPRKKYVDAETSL
UniProt Q8TBP6: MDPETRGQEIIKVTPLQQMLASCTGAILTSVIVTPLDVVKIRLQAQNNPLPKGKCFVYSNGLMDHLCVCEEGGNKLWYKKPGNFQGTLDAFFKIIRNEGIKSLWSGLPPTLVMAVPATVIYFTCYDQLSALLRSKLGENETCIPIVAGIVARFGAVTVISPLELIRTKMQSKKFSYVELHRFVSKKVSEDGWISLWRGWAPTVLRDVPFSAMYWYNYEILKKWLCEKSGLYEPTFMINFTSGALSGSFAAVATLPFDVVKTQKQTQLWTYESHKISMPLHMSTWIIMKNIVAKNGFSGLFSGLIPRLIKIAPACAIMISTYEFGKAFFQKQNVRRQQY
UniProt O00193: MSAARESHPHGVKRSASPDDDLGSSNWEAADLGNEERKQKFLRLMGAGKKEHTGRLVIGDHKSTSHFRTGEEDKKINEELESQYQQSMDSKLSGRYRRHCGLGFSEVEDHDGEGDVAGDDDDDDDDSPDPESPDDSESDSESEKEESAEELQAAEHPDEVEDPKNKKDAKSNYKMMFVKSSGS
UniProt Q6J4K2: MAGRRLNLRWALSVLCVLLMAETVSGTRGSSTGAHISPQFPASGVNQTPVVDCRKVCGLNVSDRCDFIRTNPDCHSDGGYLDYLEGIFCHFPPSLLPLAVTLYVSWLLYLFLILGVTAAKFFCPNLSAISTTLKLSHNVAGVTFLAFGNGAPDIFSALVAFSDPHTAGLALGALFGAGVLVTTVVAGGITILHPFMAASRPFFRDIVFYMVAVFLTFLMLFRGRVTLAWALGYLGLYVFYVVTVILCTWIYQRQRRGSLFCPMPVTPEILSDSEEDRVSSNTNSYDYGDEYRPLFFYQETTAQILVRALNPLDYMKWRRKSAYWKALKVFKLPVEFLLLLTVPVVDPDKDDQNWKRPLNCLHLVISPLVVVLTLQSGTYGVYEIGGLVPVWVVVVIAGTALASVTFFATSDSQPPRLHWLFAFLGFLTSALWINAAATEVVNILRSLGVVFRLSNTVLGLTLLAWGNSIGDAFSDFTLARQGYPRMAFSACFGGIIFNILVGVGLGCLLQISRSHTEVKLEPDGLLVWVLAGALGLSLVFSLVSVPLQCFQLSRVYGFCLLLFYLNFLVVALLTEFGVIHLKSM
UniProt Q0VAQ4: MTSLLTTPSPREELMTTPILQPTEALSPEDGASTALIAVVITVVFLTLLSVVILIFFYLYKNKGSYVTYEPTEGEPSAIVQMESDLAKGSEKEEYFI

What was measured:
Test in all cases: log2 fold change, soluble protein after heating vs DMSO (PISA); higher = thermal stabilisation; K562 lysate, 10 uM; active = over 0.2 and 3.5 SD of the protein, either way, in both replicates (recomputed)
[1] = compound: C1=CC=C(C=C1)[C@H](COC2=CC3=C(C=C2)NC(=O)N3)NC(=O)C4=CC=CN(C4=O)CC5=CC(=C(C=C5)F)F
In short: (§1)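 Quantification was by TMTpro 16plex LC-MS/MS with equalised channel sums, applied to the supernatant after 21,000xg for 90 min. Samples were crude K562 extract at 1 mg/mL protein in PBS pH 7.4 with 1 mM MgCl2, treated with 10 μM compound for 30 min, heated for 3 min across 48°C-58°C, pooled and brought to 0.5% NP-40 at 4°C. Values are log-two fold changes in thermal stability relative to solvent controls, from duplicates.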

[2] = compound: CC1=C(SC2=C1C(=N[C@H](C3=NN=C(N32)C)CC(=O)N)C4=CC=C(C=C4)Cl)C
In short: as §1

[3] = compound: CC1=C2C(=CC=C1)N=C(N(C2=O)C3=CC=CC=C3C)CN4C=NC5=C(N=CN=C54)N
In short: as §1

[4] = compound: Cc1sc2c(c1C)C(c1ccc(Cl)cc1)=N[C@@H](CC(=O)OC(C)(C)C)c1nnc(C)n1-2
In short: as §1

[5] = compound: c1ccc([C@@H]2C[C@H]2NC2CCNCC2)cc1
In short: as §1

Measured: log2 fold change

SLC25A20 (UniProt O43772)
inactive: [1] 0.023 | [2] 0.008 | [3] 0.047 | [4] -0.005 | [5] -0.014

SLC25A21 (UniProt Q9BQT8)
inactive: [1] 0.053 | [2] -0.015 | [3] -0.026 | [4] -0.051 | [5] -0.095

SLC25A24 (UniProt Q6NUK1)
inactive: [1] 0.02 | [2] -0.017 | [3] -0.005 | [4] -0.004 | [5] 0.011

SLC22A23 (UniProt A1A5C7)
inactive: [1] 0.063 | [2] 0.032 | [3] 0.025 | [4] -0.083 | [5] -0.057

SLK isoform 2 (UniProt Q9H2G2)
inactive: [1] 0.009 | [2] -0.003 | [3] -0.034 | [4] -0.002 | [5] 0

SLC7A1 (UniProt P30825)
inactive: [1] 0.018 | [2] -0.041 | [3] 0 | [4] 0.03 | [5] -0.012

SLC35B2 (UniProt Q8TB61)
inactive: [1] -0.006 | [2] 0.017 | [3] 0.002 | [4] 0.071 | [5] 0.013

SLC48A1 (UniProt Q6P1K1)
inactive: [1] -0.213 | [2] 0.052 | [3] 0.025 | [4] -0.03 | [5] -0.026

SLC25A19 (UniProt Q9HC21)
inactive: [1] 0 | [2] 0.01 | [3] -0.035 | [4] 0.031 | [5] 0.022

SLC38A7 (UniProt Q9NVC3)
inactive: [1] 0.022 | [2] -0.043 | [3] -0.006 | [4] 0.111 | [5] 0.027

SLC25A22 (UniProt Q9H936)
inactive: [1] -0.009 | [2] 0.031 | [3] -0.025 | [4] 0.04 | [5] -0.037

SLC25A6 (UniProt P12236)
inactive: [1] -0.015 | [2] 0.036 | [3] -0.046 | [4] -0.011 | [5] -0.014

SLC25A42 (UniProt Q86VD7)
inactive: [1] 0.141 | [2] 0.075 | [3] -0.078 | [4] 0.087 | [5] -0.003

SLC25A10 isoform 2 (UniProt Q9UBX3)
inactive: [1] 0.009 | [2] -0.008 | [3] -0.022 | [4] 0.019 | [5] -0.015

SLC35B4 (UniProt Q969S0)
inactive: [1] -0.097 | [2] -0.044 | [3] -0.086 | [5] -0.007

SLC39A7 (UniProt Q92504)
inactive: [1] -0.003 | [2] -0.038 | [3] -0.001 | [5] -0.019

SLC25A13 isoform 2 (UniProt Q9UJS0)
inactive: [1] 0.013 | [2] 0.001 | [3] -0.003 | [4] 0.019 | [5] 0.035

SLU7 (UniProt O95391)
inactive: [1] -0.015 | [2] 0.041 | [3] 0.045 | [4] -0.028 | [5] -0.16

SLC36A1 (UniProt Q7Z2H8)
inactive: [1] 0.149 | [2] 0.172 | [3] 0.166 | [4] -0.054 | [5] -0.108

SLC5A6 (UniProt Q9Y289)
inactive: [1] -0.036 | [2] -0.011 | [3] -0.017 | [4] -0.06 | [5] -0.04

SLC9A3R1 (UniProt O14745)
inactive: [1] 0.015 | [2] 0.013 | [3] 0.002 | [4] 0.003 | [5] -0.012

SLC30A10 (UniProt Q6XR72)
inactive: [1] 0.125 | [2] 0.039 | [3] 0.088 | [4] 0.071 | [5] 0.067

SLC25A25 isoform 3 (UniProt Q6KCM7)
inactive: [1] 0.064 | [2] -0.027 | [3] 0.013 | [4] 0.034 | [5] 0.023

Retrieved one by one from above, 3 records:
SLC25A42 (UniProt Q86VD7)
inactive: [1] 0.141 | [2] 0.075 | [3] -0.078 | [4] 0.087 | [5] -0.003

SLC39A7 (UniProt Q92504)
inactive: [1] -0.003 | [2] -0.038 | [3] -0.001 | [5] -0.019

SLC7A1 (UniProt P30825)
inactive: [1] 0.018 | [2] -0.041 | [3] 0 | [4] 0.03 | [5] -0.012

Next part

SLC6A8 (UniProt P48029)
inactive: [1] 0.002 | [2] 0.03 | [3] -0.028 | [4] -0.001 | [5] -0.147

SLC41A3 isoform 9 (UniProt Q96GZ6)
inactive: [1] 0.074 | [2] 0.281 | [3] 0.094 | [5] -0.257

SLC25A38 (UniProt Q96DW6)
inactive: [1] 0.099 | [2] 0 | [3] 0.013 | [4] -0.323 | [5] -0.047

SLFN14 (UniProt P0C7P3)
inactive: [1] 0.11 | [2] -0.111 | [3] 0.067 | [5] -0.049

SLC7A6 (UniProt Q92536)
inactive: [1] 0.081 | [2] -0.008 | [3] 0.069 | [4] -0.058 | [5] -0.171

SLC30A6 isoform 2 (UniProt Q6NXT4)
inactive: [1] 0.033 | [2] -0.046 | [3] 0.116 | [5] -0.059

SLC38A2 (UniProt Q96QD8)
inactive: [1] 0.014 | [2] -0.067 | [3] -0.019 | [4] 0.009 | [5] -0.062

SLC39A11 (UniProt Q8N1S5)
inactive: [1] 0.022 | [2] -0.041 | [3] 0.063 | [4] 0.186 | [5] 0.036

SLC6A9 isoform 2 (UniProt P48067)
inactive: [1] -0.042 | [2] -0.028 | [3] 0.069 | [4] -0.035 | [5] -0.055

SLC26A2 (UniProt P50443)
inactive: [1] -0.192 | [2] 0.164 | [3] 0 | [4] -0.077 | [5] 0.174

SLC4A2 (UniProt P04920)
inactive: [1] 0.042 | [2] -0.001 | [3] -0.01 | [4] 0.074 | [5] 0.017

SLC25A31 (UniProt Q9H0C2)
inactive: [1] 0.01 | [2] 0.026 | [3] -0.074 | [4] -0.003 | [5] 0.015

SLC22A5 isoform 3 (UniProt O76082)
inactive: [1] 0.128 | [2] 0 | [3] -0.311 | [4] -0.094 | [5] -0.03

SLC31A1 (UniProt O15431)
inactive: [1] 0.011 | [2] 0.024 | [3] -0.048 | [4] 0.069 | [5] 0.06

SLC25A14 isoform 3 (UniProt O95258)
inactive: [1] 0.002 | [2] -0.055 | [3] 0.01 | [4] -0.01 | [5] -0.118

SLC25A11 (UniProt Q02978)
inactive: [1] 0.01 | [2] 0.006 | [3] 0 | [4] -0.006 | [5] -0.061

SMAD9 (UniProt O15198)
inactive: [1] 0.102 | [2] -0.074 | [3] 0.058 | [4] -0.099 | [5] 0.042

SLC4A7 isoform 7 (UniProt Q9Y6M7)
inactive: [1] -0.015 | [2] 0.005 | [3] 0.046 | [4] -0.019 | [5] 0.112

SLC25A40 (UniProt Q8TBP6)
inactive: [1] 0.003 | [2] 0.003 | [3] 0.053 | [4] -0.053 | [5] 0.173

SLC52A2 (UniProt Q9HAB3)
inactive: [1] -0.019 | [2] -0.036 | [3] -0.016 | [4] -0.048 | [5] 0.021

SLIRP (UniProt Q9GZT3)
inactive: [1] 0.015 | [2] 0.001 | [3] 0.061 | [4] -0.011 | [5] -0.04

SLC45A4 isoform 3 (UniProt Q5BKX6)
inactive: [1] 0.035 | [2] 0.008 | [3] 0.04 | [5] -0.025

SLC38A10 (UniProt Q9HBR0)
inactive: [1] 0.007 | [2] 0.007 | [3] 0.036 | [4] -0.053 | [5] -0.04

SMAP (UniProt O00193)
inactive: [1] 0.036 | [2] -0.016 | [3] 0.009 | [4] 0.085 | [5] 0.033

SLC40A1 (UniProt Q9NP59)
inactive: [3] 0.013 | [4] -0.107 | [5] -0.205

SLC8B1 (UniProt Q6J4K2)
inactive: [3] -0.05 | [4] 0 | [5] -0.042

SLC25A23 isoform 3 (UniProt Q9BV35)
inactive: [4] -0.129 | [5] 0.132

SLC35D1 (UniProt Q9NTN3)
inactive: [3] 0.135

SLC23A2 (UniProt Q9UGH3)
inactive: [4] -0.019 | [5] 0.147

SMAGP (UniProt Q0VAQ4)
inactive: [4] -0.053 | [5] 0.031
